# Results as given in the supplement of paper PMC10849652.
# Protein sequences, listed by entry. Tags and fused reporters are not part of them. Lines headed by an entry give the natural chain unless they say otherwise; changes in a name come on top.
# UniProt Q9BTD8: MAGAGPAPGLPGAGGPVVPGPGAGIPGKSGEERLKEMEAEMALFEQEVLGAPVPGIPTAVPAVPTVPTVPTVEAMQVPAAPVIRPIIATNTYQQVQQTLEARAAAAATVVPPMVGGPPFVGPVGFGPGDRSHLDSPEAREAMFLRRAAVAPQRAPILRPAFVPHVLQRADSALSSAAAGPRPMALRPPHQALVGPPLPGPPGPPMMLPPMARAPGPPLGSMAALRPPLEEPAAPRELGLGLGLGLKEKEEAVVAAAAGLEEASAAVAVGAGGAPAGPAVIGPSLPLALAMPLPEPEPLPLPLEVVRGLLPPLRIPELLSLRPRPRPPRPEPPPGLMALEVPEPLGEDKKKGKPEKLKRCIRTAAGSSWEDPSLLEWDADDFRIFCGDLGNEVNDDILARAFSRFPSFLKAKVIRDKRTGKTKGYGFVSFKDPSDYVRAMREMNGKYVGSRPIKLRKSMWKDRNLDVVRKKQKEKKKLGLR
# UniProt P20936: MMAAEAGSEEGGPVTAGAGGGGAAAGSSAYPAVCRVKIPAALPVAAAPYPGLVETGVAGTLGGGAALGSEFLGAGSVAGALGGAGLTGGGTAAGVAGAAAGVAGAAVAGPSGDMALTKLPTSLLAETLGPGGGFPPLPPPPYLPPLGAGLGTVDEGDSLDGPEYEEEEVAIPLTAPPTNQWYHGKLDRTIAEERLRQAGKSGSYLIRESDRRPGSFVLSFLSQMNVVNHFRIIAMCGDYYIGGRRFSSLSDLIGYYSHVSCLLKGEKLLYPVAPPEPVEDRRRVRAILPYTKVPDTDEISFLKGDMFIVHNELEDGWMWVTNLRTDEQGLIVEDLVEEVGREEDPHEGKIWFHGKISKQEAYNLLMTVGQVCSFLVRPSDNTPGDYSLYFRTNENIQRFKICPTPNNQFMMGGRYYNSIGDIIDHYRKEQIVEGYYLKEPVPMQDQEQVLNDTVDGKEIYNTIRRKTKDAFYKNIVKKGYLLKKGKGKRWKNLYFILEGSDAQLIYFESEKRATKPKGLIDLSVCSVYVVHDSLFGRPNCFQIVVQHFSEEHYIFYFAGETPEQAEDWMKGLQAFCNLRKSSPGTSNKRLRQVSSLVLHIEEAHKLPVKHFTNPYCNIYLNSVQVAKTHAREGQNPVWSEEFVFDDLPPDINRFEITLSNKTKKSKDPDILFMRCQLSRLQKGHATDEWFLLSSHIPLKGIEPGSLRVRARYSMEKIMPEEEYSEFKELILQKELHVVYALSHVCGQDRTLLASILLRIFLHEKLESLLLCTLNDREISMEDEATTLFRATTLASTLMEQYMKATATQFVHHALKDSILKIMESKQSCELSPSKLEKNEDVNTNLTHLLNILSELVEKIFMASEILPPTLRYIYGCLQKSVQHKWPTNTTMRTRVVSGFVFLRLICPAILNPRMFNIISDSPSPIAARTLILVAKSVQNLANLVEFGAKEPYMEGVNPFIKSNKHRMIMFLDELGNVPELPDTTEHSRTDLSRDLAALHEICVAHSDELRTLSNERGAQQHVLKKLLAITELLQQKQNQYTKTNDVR
# UniProt Q00765: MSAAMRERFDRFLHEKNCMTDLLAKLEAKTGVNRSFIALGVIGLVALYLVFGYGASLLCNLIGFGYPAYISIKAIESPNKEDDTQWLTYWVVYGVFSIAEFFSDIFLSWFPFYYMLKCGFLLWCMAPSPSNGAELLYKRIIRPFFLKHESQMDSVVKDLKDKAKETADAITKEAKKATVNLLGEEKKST
# UniProt P98179: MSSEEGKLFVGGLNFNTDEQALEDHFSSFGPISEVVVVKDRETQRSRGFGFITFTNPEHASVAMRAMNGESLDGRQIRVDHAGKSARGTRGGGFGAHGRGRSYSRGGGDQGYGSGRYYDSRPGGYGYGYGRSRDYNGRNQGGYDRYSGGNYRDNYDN
# UniProt P40937, whole entry, looked up: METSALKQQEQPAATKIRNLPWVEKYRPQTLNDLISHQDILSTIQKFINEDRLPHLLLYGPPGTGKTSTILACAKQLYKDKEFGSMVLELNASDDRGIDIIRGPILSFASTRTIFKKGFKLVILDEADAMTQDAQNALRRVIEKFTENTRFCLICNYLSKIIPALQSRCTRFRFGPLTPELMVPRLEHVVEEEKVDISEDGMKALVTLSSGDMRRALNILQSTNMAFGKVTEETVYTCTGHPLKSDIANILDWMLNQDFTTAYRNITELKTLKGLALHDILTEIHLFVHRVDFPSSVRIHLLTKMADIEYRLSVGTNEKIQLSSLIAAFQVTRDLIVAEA
# UniProt Q15283: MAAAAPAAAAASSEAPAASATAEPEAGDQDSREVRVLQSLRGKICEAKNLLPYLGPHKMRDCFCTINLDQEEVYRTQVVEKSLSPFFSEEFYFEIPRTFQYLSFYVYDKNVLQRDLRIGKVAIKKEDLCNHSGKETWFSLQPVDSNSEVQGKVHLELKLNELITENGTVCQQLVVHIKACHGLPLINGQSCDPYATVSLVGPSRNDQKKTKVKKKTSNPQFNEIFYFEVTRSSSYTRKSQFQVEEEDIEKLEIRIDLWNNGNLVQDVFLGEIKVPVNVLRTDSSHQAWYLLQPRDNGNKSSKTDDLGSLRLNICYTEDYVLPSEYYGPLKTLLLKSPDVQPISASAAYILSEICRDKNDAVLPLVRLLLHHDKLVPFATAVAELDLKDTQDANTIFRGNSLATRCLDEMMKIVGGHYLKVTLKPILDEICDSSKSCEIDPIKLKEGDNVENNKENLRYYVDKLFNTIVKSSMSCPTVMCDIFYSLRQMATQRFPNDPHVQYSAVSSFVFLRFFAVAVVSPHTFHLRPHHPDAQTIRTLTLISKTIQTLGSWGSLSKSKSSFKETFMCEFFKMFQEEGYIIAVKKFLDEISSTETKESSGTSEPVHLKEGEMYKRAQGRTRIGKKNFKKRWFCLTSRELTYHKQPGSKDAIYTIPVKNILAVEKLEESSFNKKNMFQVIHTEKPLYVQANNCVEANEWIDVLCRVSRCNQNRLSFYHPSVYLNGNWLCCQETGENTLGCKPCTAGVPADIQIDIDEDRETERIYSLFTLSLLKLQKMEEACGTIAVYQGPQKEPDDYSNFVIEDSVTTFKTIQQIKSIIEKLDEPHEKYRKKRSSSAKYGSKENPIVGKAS
# UniProt P35251: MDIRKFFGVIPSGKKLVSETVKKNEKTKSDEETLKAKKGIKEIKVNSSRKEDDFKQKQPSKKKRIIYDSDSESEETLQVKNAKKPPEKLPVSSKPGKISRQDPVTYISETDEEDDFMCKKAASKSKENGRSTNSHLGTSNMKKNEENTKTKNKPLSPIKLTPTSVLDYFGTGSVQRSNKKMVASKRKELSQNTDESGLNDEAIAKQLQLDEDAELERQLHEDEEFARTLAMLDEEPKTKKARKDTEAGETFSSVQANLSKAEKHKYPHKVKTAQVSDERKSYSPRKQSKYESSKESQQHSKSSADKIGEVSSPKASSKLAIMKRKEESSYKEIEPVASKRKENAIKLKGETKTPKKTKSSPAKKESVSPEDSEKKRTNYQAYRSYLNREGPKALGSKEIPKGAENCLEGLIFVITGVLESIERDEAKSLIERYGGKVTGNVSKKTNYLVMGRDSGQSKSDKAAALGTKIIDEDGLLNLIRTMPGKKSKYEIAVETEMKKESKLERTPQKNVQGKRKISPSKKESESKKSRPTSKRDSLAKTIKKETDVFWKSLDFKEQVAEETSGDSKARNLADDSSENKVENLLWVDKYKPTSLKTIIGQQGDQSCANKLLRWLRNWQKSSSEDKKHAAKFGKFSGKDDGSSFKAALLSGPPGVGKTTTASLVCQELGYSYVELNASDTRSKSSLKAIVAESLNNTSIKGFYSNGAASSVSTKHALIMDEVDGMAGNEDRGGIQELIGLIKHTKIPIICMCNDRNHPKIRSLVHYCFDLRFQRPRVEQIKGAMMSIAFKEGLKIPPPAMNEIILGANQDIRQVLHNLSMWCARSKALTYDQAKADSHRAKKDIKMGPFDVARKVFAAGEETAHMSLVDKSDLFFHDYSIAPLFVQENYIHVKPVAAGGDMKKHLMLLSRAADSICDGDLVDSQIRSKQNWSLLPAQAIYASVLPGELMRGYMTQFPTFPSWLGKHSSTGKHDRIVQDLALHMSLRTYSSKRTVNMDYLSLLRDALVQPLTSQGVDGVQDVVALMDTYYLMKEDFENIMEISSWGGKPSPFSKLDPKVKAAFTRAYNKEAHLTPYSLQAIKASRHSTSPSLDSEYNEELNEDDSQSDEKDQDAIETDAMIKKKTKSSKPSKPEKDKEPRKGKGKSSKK
# UniProt P06400: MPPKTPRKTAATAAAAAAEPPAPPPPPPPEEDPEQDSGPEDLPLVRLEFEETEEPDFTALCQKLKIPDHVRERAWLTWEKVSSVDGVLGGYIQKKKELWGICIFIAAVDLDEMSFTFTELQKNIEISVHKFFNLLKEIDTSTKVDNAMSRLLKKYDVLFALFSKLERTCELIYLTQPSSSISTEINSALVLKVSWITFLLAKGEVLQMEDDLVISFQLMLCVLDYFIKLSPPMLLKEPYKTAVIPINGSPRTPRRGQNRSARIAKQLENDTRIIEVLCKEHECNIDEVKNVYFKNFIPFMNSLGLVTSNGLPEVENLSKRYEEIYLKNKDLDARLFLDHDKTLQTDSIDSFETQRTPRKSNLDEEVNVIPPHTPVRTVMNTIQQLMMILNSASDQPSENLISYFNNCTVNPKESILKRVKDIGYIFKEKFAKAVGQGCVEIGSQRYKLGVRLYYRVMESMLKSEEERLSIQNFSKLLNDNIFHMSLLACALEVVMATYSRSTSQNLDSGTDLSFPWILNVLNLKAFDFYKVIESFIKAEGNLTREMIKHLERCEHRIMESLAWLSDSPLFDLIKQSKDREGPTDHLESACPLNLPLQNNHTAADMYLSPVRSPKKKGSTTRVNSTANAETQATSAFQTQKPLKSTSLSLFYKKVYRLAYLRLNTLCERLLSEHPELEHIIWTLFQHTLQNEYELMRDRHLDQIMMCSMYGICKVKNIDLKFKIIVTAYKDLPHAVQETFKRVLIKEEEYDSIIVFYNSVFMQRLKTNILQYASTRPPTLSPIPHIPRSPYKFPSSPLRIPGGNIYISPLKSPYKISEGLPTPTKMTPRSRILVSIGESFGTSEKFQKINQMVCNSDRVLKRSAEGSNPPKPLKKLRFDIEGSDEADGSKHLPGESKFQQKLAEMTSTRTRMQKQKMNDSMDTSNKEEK
# UniProt Q96HR9: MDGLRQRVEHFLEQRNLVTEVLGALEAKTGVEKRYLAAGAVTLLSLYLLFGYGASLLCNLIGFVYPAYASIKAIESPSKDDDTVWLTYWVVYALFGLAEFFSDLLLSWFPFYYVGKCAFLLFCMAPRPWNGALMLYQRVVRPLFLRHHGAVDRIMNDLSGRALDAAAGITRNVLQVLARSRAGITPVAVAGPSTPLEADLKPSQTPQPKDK
# UniProt P78332: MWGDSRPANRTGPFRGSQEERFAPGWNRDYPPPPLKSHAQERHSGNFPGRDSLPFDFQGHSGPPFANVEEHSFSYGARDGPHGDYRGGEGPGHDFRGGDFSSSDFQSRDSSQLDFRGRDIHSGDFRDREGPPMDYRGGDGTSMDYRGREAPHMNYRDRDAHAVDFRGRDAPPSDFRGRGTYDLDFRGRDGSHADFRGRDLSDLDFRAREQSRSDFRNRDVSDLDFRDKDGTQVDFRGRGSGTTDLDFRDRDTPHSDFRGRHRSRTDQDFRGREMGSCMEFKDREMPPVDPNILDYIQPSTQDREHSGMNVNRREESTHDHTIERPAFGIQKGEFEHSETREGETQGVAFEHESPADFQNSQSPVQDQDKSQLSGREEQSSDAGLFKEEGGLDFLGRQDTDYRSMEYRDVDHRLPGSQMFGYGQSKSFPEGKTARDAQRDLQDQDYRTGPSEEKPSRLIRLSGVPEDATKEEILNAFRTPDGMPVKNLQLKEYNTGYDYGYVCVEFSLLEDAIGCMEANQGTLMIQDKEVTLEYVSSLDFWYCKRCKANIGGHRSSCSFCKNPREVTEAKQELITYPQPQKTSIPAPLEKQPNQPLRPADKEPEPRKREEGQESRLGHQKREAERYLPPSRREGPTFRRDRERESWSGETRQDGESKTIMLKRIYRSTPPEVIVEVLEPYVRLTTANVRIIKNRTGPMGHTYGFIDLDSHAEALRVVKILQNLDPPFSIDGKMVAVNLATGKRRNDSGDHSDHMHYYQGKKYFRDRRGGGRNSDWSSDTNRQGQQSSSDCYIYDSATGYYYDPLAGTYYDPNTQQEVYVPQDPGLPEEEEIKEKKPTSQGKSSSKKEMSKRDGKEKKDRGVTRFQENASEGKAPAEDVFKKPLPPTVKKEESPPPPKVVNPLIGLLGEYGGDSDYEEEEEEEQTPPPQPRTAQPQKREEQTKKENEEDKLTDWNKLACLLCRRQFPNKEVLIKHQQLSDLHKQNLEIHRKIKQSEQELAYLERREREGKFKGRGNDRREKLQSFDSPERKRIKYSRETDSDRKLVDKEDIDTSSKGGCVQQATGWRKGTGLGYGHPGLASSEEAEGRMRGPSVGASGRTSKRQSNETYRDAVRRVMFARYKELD
# This is one part of the list.
# Legend:
# Assay in all cases: log2 fold change, soluble protein after heating vs DMSO (PISA); higher = thermal stabilisation; K562 lysate, 10 uM; active = over 0.2 and 3.5 SD of the protein, either way, in both replicates (recomputed)
# nilotinib = compound: Cc1cn(-c2cc(NC(=O)c3ccc(C)c(Nc4nccc(-c5cccnc5)n4)c3)cc(C(F)(F)F)c2)cn1 [nilotinib]
# Outline: (§1)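 Quantification was by TMTpro 16plex LC-MS/MS with equalised channel sums, applied to the supernatant after 21,000xg for 90 min. Samples were crude K562 extract at 1 mg/mL protein in PBS pH 7.4 with 1 mM MgCl2, treated with 10 μM compound for 30 min, heated for 3 min across 48°C-58°C, pooled and brought to 0.5% NP-40 at 4°C. Values are log-two fold changes in thermal stability relative to solvent controls, from duplicates.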
# [1] = compound: Cc1nc(Nc2n[nH]c3c2CN(C(=O)N[C@H](CN(C)C)c2ccccc2)C3(C)C)c2sccc2n1
# Outline: as §1
# dasatinib = compound: Cc1nc(Nc2ncc(C(=O)Nc3c(C)cccc3Cl)s2)cc(N2CCN(CCO)CC2)n1 [dasatinib]
# Outline: as §1
# [2] = compound: Cc1ncc(-c2ccnc(Nc3ccc(S(C)(=O)=O)cc3)n2)n1C(C)C
# Outline: as §1
# [3] = compound: Cn1cc(-c2ccc3c(c2)CCN3C(=O)Cc2cccc(C(F)(F)F)c2)c2c(N)ncnc21
# Outline: as §1
# quisinostat = compound: Cn1cc(CNCC2CCN(c3ncc(C(=O)NO)cn3)CC2)c2ccccc21 [quisinostat]
# Outline: as §1
# tipifarnib = compound: Cn1cncc1[C@@](N)(c1ccc(Cl)cc1)c1ccc2c(c1)c(-c1cccc(Cl)c1)cc(=O)n2C [tipifarnib]
# Outline: as §1
# [4] = compound: NC(=O)Nc1cc(-c2cccc(F)c2)sc1C(=O)N[C@H]1CCCNC1
# Outline: as §1
# [5] = compound: NC(=O)c1cnc(N[C@@H]2CCCC[C@@H]2N)nc1Nc1cccc(-n2nccn2)c1
# Outline: as §1
# [6] = compound: NC1(c2ccc(-c3nc4ccn5c(=O)[nH]nc5c4cc3-c3ccccc3)cc2)CCC1
# Outline: as §1
Target,log2 fold change (nilotinib),log2 fold change [1],log2 fold change (dasatinib),log2 fold change [2],log2 fold change [3],log2 fold change (quisinostat),log2 fold change (tipifarnib),log2 fold change [4],log2 fold change [5],log2 fold change [6]
RBM42 (UniProt Q9BTD8),inactive: 0.102,inactive: -0.039,inactive: -0.021,inactive: 0.009,inactive: -0.039,inactive: -0.033,inactive: 0.073,inactive: -0.022,inactive: -0.049,inactive: 0.004
REEP4 (UniProt Q9H6H4),inactive: 0.08,inactive: -0.048,inactive: -0.063,inactive: 0.042,inactive: -0.012,inactive: 0.053,inactive: -0.038,inactive: -0.035,inactive: 0.032,inactive: -0.009
RGPD5 (UniProt Q99666),inactive: 0.068,inactive: -0.012,inactive: 0.018,inactive: -0.002,inactive: 0.002,inactive: -0.016,inactive: -0.022,inactive: 0.025,inactive: -0.063,inactive: -0.005
RASSF5 (UniProt Q8WWW0),inactive: -0.097,inactive: 0.167,inactive: 0.087,inactive: 0.021,inactive: 0.1,inactive: -0.155,inactive: 0,inactive: 0.216,inactive: 0.065,inactive: 0.05
RASA1 (UniProt P20936),inactive: -0.011,inactive: 0.015,inactive: 0.01,inactive: 0.027,inactive: 0.034,inactive: -0.01,inactive: 0.03,inactive: 0.036,inactive: 0.007,inactive: -0.028
RBM12 (UniProt Q9NTZ6),inactive: -0.019,inactive: 0,inactive: -0.035,inactive: -0.023,inactive: -0.007,inactive: -0.002,inactive: -0.033,inactive: 0.002,inactive: 0.006,inactive: 0.02
RCC1 isoform 2 (UniProt P18754),inactive: 0.024,inactive: -0.024,inactive: -0.071,inactive: 0.021,inactive: 0.034,inactive: 0.001,inactive: -0.011,inactive: 0.027,inactive: -0.02,inactive: -0.043
RFT1 (UniProt Q96AA3),inactive: 0.021,inactive: -0.034,inactive: 0.008,inactive: -0.024,inactive: 0.02,inactive: -0.065,inactive: -0.042,inactive: -0.037,inactive: 0.023,inactive: -0.008
REEP5 (UniProt Q00765),inactive: 0.107,inactive: -0.011,inactive: 0.056,inactive: 0.003,inactive: -0.012,inactive: 0.005,inactive: 0.026,inactive: -0.024,inactive: 0,inactive: -0.023
RBM34 (UniProt P42696),inactive: 0.011,inactive: 0.014,inactive: 0.04,inactive: -0.005,inactive: -0.019,inactive: -0.035,inactive: 0.041,inactive: 0.033,inactive: 0.004,inactive: -0.014
RBM26 isoform 2 (UniProt Q5T8P6),inactive: 0.02,inactive: 0.008,inactive: 0,inactive: -0.01,inactive: 0.026,inactive: -0.011,inactive: 0.029,inactive: -0.006,inactive: 0.016,inactive: 0.054
RELN (UniProt P78509),inactive: -0.086,inactive: -0.039,inactive: -0.005,inactive: -0.047,inactive: 0.002,inactive: -0.005,inactive: -0.032,inactive: 0.042,inactive: -0.101,inactive: 0.013
RCSD1 (UniProt Q6JBY9),inactive: -0.037,inactive: 0,inactive: -0.009,inactive: 0.019,inactive: -0.015,inactive: -0.059,inactive: -0.014,inactive: -0.003,inactive: 0,inactive: 0.027
RFLNB (UniProt Q8N5W9),inactive: 0.027,inactive: 0.307,inactive: 0.034,inactive: 0.047,inactive: -0.144,inactive: 0.027,inactive: 0.081,inactive: 0.022,inactive: -0.117,inactive: -0.013
RBM3 (UniProt P98179),inactive: 0.063,inactive: -0.064,inactive: -0.015,inactive: 0.018,inactive: -0.107,inactive: 0.134,inactive: 0.047,inactive: 0.001,inactive: -0.034,inactive: 0.12
RCAN1 (UniProt P53805),active: -0.457,inactive: 0.008,inactive: 0.023,inactive: -0.055,inactive: 0.038,inactive: -0.217,inactive: 0.131,inactive: 0.117,inactive: 0.088,inactive: 0.036
REXO2 (UniProt Q9Y3B8),inactive: 0.01,inactive: 0.005,inactive: -0.02,inactive: -0.002,inactive: -0.023,inactive: 0.001,inactive: 0.067,inactive: 0.002,inactive: -0.001,inactive: 0.027
RBM22 (UniProt Q9NW64),inactive: -0.045,inactive: 0.024,inactive: -0.072,inactive: -0.006,inactive: 0.057,inactive: -0.022,inactive: -0.036,inactive: -0.027,inactive: 0.01,inactive: 0.033
RFC5 (UniProt P40937),inactive: 0.005,inactive: 0.001,inactive: -0.06,inactive: -0.005,inactive: 0.025,inactive: -0.078,inactive: -0.023,inactive: 0.074,inactive: 0.025,inactive: -0.02
RBM39 (UniProt Q14498),inactive: 0,inactive: 0.009,inactive: -0.027,inactive: 0.008,inactive: -0.007,inactive: 0.013,inactive: -0.049,inactive: -0.115,inactive: -0.034,inactive: 0.039
RBM38 (UniProt Q9H0Z9),inactive: -0.041,inactive: 0.016,inactive: -0.244,inactive: 0.054,inactive: -0.008,inactive: 0.013,inactive: 0.006,inactive: 0.036,inactive: 0.067,inactive: 0.021
RASA2 (UniProt Q15283),inactive: -0.049,inactive: -0.037,inactive: -0.015,inactive: 0.063,inactive: 0,inactive: -0.071,inactive: 0.018,inactive: -0.011,inactive: 0.042,inactive: -0.031
RGP1 (UniProt Q92546),inactive: -0.018,inactive: 0.065,inactive: -0.027,inactive: 0,inactive: -0.039,inactive: -0.098,inactive: -0.09,inactive: 0.099,inactive: 0.035,inactive: 0.078
RFC1 (UniProt P35251),inactive: -0.007,inactive: -0.017,inactive: -0.05,inactive: 0.014,inactive: -0.026,inactive: -0.048,inactive: -0.063,inactive: -0.006,inactive: 0.01,inactive: 0.054
RHEB (UniProt Q15382),inactive: 0.004,inactive: -0.015,inactive: -0.046,inactive: -0.05,inactive: 0.04,inactive: 0,inactive: 0.003,inactive: 0.003,inactive: 0.02,inactive: 0.022
RB1 (UniProt P06400),inactive: -0.005,inactive: 0.012,inactive: 0,inactive: -0.021,inactive: 0.016,inactive: -0.001,inactive: 0.004,inactive: -0.031,inactive: 0.014,inactive: 0.025
REEP6 (UniProt Q96HR9),inactive: 0.058,inactive: 0.1,inactive: 0.204,inactive: 0.041,inactive: 0.009,inactive: -0.072,inactive: 0.001,inactive: -0.03,inactive: 0.155,inactive: -0.023
RECQL5 (UniProt O94762),inactive: -0.026,inactive: 0.057,inactive: 0.023,inactive: 0.011,inactive: -0.04,inactive: -0.013,inactive: -0.064,inactive: 0.034,inactive: 0.343,inactive: 0.049
RBM6 (UniProt P78332),inactive: 0.018,inactive: -0.031,inactive: -0.06,inactive: 0.135,inactive: 0.125,inactive: -0.002,inactive: -0.024,inactive: 0.007,inactive: -0.018,inactive: -0.043
RBM8A (UniProt Q9Y5S9),inactive: -0.005,inactive: 0.025,inactive: 0.023,inactive: 0.004,inactive: 0.067,inactive: 0.187,inactive: 0.051,inactive: -0.016,inactive: 0,inactive: 0.108

# Whole records as entered above. Values in the order: log2 fold change (nilotinib) | log2 fold change [1] | log2 fold change (dasatinib) | log2 fold change [2] | log2 fold change [3] | log2 fold change (quisinostat) | log2 fold change (tipifarnib) | log2 fold change [4] | log2 fold change [5] | log2 fold change [6]
# RASA2 (UniProt Q15283) reads inactive: -0.049 | inactive: -0.037 | inactive: -0.015 | inactive: 0.063 | inactive: 0 | inactive: -0.071 | inactive: 0.018 | inactive: -0.011 | inactive: 0.042 | inactive: -0.031
# REEP4 (UniProt Q9H6H4) reads inactive: 0.08 | inactive: -0.048 | inactive: -0.063 | inactive: 0.042 | inactive: -0.012 | inactive: 0.053 | inactive: -0.038 | inactive: -0.035 | inactive: 0.032 | inactive: -0.009
